PubChem BioAssay AID1671195, Yale University | 2021
This is a random part of about 22,000 deposited reagents. Over the whole deposit, about 1,510 (6.9%) are marked active. 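Active includes knockdowns raising or lowering LDL uptake; positive z-scores mean more uptake, negative mean less.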 No sequences are given here.

Screen: 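Knockdowns that increase or decrease uptake of fluorescent LDL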 (primary screen)
System: human Huh7 hepatoma cells
Reagents: siRNA pool against human genes, 18 nM
Duration: about 2 to 2.5 days of knockdown, then 8 h LDL uptake
Conditions: DiI-labelled LDL at 30 µg/ml for 8 h, in lipoprotein-deficient serum medium
Detection: 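Per-cell DiI-LDL intensity by automated imaging; well means scaled to the plate median and given as a robust z-score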
Direction: robust z-score: higher = more LDL uptake after knockdown
Active means: 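Active when two or more replicates show a robust z-score above 2 or below -2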

What is on record for PTDSS2 (GeneID 81490)?
robust z-score, replicate 1: 1.19; robust z-score, replicate 2: 1.68; robust z-score, replicate 3: 1.57; outcome: inactive

What did the screen give for SLC6A16 (GeneID 28968)?
robust z-score, replicate 1: -0.082; robust z-score, replicate 2: -0.151; robust z-score, replicate 3: -0.0554; outcome: inactive

With HEATR3 (GeneID 55027), how do the results read?
robust z-score, replicate 1: -0.441; robust z-score, replicate 2: -0.109; robust z-score, replicate 3: 0.516; outcome: inactive

Which result is listed for S100A16 (GeneID 140576)?
robust z-score, replicate 1: -0.703; robust z-score, replicate 2: -0.164; robust z-score, replicate 3: -0.347; outcome: inactive

How did the screen score SMIM12 (GeneID 113444)?
robust z-score, replicate 1: -1.58; robust z-score, replicate 2: -0.545; robust z-score, replicate 3: -1.34; outcome: inactive

What is on record for ANKRD34C (GeneID 390616)?
robust z-score, replicate 1: 1.07; robust z-score, replicate 2: 0.138; robust z-score, replicate 3: 0.511; outcome: inactive

For TMEM35A (GeneID 59353), how do the results read?
robust z-score, replicate 1: 1.18; robust z-score, replicate 2: 0.764; robust z-score, replicate 3: 0.476; outcome: inactive

For RPLP0 (GeneID 6175), what was measured?
robust z-score, replicate 1: -0.651; robust z-score, replicate 2: -0.319; robust z-score, replicate 3: -0.00165; outcome: inactive

Which result is listed for CEP85L (GeneID 387119)?
robust z-score, replicate 1: 2.88; robust z-score, replicate 2: 4.23; robust z-score, replicate 3: 4.15; outcome: active

With FSAF1 (GeneID 128061), what was measured?
robust z-score, replicate 1: -0.738; robust z-score, replicate 2: -0.622; robust z-score, replicate 3: 0.333; outcome: inactive

How did the screen score STAR (GeneID 6770)?
robust z-score, replicate 1: 0.299; robust z-score, replicate 2: 0.648; robust z-score, replicate 3: -0.158; outcome: inactive

What is on record for TRAPPC12 (GeneID 51112)?
robust z-score, replicate 1: 0.773; robust z-score, replicate 2: 0.802; robust z-score, replicate 3: 1.3; outcome: inactive

With SLC35D4 (GeneID 85019), what does the deposit list?
robust z-score, replicate 1: 0.342; robust z-score, replicate 2: -0.011; robust z-score, replicate 3: -0.339; outcome: inactive

How did the screen score ZNF593 (GeneID 51042)?
robust z-score, replicate 1: -0.416; robust z-score, replicate 2: -0.559; robust z-score, replicate 3: 0.31; outcome: inactive

With CRABP2 (GeneID 1382), what was measured?
robust z-score, replicate 1: 1.9; robust z-score, replicate 2: 1.05; robust z-score, replicate 3: 1.81; outcome: inactive

What did the screen give for PCID2 (GeneID 55795)?
robust z-score, replicate 1: -0.135; robust z-score, replicate 2: -1.72; robust z-score, replicate 3: -0.447; outcome: inactive

Hits, of those listed so far:
CEP85L (GeneID 387119): robust z-score, replicate 1 = 2.88; robust z-score, replicate 2 = 4.23; robust z-score, replicate 3 = 4.15; outcome = active
